From the supplement of paper PMC12595434, “Development of retinoid nuclear receptor pathway antagonists through targeting aldehyde dehydrogenase 1A3” (iScience, 2025)
Some of the results follow. This is a noisy data set.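 Many melting curves are irregular; where none melted, Tm was taken as 64 °C.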

Amino acid sequences for entries named in this document (tags omitted). A change or cut given only in a name is not applied to a line headed by its entry.
UniProt Q96E09: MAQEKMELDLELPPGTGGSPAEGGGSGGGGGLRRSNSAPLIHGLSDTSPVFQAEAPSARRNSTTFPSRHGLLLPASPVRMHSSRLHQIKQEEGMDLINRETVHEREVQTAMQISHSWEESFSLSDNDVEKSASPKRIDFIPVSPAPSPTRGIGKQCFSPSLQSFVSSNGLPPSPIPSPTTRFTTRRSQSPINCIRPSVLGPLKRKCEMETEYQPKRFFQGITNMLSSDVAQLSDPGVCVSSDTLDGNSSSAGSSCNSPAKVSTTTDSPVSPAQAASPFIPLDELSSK
UniProt Q92536: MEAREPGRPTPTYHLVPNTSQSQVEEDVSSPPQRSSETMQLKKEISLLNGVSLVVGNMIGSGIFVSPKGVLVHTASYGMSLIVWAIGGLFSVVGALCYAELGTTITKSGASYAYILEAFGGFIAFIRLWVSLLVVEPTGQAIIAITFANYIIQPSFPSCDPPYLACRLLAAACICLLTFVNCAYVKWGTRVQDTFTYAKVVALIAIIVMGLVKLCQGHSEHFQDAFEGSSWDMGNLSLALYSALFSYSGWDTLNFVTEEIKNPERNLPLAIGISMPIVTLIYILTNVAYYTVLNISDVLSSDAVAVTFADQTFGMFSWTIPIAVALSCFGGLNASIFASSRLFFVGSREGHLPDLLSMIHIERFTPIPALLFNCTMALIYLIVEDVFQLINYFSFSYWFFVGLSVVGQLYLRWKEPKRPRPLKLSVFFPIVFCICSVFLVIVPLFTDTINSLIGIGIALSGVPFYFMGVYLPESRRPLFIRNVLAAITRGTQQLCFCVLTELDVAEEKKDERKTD
UniProt Q92616, whole entry: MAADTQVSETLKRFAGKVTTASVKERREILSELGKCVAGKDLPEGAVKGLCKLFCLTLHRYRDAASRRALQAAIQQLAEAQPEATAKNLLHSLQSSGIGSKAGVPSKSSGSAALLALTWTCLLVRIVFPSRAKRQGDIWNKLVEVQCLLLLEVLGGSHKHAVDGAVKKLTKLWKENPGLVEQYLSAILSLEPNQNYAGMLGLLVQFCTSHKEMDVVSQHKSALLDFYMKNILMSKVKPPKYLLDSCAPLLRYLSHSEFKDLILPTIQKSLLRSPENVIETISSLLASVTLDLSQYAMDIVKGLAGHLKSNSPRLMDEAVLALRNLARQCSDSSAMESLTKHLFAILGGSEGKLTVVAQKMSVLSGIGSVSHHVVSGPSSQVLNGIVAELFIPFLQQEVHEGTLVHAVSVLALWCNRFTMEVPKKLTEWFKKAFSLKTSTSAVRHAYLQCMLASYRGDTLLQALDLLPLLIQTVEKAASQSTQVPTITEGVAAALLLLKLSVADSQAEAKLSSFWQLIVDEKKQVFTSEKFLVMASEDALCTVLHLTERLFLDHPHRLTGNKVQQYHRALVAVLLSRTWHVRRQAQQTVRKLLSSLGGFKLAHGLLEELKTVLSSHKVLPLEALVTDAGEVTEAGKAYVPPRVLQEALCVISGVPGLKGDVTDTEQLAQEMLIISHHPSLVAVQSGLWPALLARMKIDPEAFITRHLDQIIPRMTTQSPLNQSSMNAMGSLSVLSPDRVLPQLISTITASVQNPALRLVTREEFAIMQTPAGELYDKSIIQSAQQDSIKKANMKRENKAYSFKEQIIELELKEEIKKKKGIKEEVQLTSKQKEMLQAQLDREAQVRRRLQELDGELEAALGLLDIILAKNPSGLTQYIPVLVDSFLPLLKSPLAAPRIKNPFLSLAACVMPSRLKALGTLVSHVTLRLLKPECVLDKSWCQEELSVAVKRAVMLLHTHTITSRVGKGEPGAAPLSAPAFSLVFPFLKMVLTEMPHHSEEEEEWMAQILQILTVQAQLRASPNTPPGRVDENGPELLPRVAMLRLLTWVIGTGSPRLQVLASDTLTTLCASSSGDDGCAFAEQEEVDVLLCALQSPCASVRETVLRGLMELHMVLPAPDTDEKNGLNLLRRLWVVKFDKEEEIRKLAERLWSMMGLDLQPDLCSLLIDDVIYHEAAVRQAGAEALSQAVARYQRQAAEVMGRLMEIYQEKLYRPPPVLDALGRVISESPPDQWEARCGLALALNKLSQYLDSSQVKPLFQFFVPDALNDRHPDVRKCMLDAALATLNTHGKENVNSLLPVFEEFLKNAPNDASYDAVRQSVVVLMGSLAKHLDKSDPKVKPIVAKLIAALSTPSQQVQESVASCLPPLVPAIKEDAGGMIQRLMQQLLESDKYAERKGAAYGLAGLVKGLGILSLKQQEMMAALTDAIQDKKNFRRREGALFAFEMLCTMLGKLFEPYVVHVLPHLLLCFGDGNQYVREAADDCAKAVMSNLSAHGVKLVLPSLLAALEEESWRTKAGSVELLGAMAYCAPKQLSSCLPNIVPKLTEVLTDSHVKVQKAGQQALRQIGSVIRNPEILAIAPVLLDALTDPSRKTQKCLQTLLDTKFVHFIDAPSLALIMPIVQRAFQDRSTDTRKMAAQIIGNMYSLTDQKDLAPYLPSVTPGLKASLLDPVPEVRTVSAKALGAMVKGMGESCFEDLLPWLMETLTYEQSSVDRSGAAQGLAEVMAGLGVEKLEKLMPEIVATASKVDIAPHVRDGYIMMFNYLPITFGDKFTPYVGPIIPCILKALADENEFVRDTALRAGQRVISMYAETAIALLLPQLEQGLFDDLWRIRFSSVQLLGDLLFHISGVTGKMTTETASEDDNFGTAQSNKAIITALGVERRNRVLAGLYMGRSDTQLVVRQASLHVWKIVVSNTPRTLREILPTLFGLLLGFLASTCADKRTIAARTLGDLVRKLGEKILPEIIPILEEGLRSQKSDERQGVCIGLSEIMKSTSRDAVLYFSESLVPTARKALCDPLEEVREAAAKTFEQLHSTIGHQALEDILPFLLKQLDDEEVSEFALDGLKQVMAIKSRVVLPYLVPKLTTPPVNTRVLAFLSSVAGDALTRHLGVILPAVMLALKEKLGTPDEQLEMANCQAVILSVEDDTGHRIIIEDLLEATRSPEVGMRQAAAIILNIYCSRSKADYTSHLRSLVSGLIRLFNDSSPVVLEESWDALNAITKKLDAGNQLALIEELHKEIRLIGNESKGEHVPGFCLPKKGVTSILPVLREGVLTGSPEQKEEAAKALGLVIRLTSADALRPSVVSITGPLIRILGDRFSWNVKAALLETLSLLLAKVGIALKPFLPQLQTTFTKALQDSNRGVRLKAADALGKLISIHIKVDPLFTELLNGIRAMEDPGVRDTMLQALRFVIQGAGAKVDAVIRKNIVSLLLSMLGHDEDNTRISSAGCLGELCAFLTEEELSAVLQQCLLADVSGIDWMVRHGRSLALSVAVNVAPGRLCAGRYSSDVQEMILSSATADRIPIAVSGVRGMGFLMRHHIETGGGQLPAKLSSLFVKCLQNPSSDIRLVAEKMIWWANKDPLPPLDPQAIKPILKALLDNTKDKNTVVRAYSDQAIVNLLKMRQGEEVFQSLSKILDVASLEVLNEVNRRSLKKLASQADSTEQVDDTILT
UniProt Q92481: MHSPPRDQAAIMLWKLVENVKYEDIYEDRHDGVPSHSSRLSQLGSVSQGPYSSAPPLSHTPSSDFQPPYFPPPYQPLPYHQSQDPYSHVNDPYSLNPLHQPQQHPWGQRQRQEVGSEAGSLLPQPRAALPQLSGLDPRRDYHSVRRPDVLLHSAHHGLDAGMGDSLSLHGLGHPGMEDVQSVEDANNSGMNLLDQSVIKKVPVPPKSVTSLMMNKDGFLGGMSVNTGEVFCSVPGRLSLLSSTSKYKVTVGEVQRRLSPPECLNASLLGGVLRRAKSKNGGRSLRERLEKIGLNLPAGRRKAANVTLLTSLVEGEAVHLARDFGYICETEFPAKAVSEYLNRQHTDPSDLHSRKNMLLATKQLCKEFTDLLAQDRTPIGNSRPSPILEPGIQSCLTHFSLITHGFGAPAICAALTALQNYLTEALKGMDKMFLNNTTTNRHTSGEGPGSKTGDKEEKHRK
UniProt Q96D53: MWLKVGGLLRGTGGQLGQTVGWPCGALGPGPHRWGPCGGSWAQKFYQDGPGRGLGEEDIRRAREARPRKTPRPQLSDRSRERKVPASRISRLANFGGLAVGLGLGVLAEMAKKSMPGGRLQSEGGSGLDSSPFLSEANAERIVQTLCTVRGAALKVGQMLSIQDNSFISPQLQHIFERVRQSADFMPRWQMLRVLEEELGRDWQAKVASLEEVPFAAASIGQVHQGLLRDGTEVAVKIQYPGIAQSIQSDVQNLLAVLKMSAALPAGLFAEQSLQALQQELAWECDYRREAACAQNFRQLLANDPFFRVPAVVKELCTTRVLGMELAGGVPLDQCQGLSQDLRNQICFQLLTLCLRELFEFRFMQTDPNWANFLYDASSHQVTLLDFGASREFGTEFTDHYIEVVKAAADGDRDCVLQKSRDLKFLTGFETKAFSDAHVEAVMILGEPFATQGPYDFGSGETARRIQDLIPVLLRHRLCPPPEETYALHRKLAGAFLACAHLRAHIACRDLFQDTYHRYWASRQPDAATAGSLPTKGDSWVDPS
UniProt Q92887: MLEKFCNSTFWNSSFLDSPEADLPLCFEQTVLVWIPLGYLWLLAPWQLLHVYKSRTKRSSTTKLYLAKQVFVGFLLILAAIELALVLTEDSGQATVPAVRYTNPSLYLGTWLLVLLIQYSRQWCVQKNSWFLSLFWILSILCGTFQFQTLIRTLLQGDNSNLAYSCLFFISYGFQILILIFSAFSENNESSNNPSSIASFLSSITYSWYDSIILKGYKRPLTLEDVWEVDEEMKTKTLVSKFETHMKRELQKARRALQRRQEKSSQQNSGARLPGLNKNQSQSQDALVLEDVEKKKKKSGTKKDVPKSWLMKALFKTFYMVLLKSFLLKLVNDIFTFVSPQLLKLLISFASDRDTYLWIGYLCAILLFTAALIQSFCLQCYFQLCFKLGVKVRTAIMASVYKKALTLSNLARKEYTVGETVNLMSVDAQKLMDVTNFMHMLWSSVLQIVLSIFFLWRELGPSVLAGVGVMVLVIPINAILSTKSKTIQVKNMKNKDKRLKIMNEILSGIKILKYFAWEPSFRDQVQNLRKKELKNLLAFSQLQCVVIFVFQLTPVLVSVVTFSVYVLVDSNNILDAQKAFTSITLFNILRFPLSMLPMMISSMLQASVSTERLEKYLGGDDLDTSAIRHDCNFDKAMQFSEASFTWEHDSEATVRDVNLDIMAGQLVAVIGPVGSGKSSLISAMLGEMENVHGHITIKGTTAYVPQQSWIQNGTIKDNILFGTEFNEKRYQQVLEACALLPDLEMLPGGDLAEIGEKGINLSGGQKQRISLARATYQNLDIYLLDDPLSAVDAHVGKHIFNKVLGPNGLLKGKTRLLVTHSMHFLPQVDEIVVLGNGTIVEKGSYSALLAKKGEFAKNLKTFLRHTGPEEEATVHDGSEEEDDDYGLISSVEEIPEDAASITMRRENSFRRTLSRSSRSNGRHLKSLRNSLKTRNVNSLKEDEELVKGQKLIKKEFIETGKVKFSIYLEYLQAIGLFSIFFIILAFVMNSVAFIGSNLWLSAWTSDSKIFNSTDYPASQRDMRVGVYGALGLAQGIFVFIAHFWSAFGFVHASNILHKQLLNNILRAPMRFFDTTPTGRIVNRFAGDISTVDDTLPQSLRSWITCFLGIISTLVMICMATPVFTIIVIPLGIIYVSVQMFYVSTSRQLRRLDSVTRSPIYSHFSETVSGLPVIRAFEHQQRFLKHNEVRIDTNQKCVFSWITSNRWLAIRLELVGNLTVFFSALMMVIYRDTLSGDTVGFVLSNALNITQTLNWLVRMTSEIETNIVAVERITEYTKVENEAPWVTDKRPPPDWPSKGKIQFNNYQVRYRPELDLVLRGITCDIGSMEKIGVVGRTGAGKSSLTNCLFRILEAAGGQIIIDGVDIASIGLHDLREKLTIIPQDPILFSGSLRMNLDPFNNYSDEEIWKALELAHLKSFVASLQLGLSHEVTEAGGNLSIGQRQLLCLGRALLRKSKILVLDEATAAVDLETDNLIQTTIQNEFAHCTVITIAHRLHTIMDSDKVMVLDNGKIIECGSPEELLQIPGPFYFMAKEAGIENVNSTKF
UniProt Q96CG3: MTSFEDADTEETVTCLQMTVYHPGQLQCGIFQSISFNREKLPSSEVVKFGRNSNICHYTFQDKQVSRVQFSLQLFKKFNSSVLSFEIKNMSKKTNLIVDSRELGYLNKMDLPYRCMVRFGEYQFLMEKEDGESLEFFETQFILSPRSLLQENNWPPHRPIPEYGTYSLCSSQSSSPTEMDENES
UniProt Q96A26: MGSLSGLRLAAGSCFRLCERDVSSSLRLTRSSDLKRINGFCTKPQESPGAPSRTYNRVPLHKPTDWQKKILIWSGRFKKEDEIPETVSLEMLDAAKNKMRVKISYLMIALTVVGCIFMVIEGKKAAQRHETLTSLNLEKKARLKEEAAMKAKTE
UniProt Q969F1: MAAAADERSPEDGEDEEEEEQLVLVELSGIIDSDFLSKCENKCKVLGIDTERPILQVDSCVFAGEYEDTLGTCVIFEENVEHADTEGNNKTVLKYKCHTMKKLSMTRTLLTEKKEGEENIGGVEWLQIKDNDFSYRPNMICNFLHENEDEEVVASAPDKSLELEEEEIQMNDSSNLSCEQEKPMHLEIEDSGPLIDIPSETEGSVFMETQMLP

The targets below were run with CCc1cnccc1C(=O)Nc1cc2c(cc1F)NC(=O)CC2 (assay: melting temperature shift (DMSO Tm minus MBE1-treated Tm) in cellular thermal proteome profiling; higher = less thermal stabilization by MBE1 (negative = stabilized by MBE1)). Details: A375; MBE1 concentration: 100 nM.
With NUP205 (UniProt Q92621) the melting temperature shift was 1.09 °C. NCLN (UniProt Q969V3) showed a melting temperature shift of -0.644 °C. Work on UniProt Q96E09 yielded a melting temperature shift of -3.31 °C. Target NSMAF (UniProt Q92636) has a melting temperature shift of -0.415 °C. For TRUB1 (UniProt Q8WWH5), the melting temperature shift was -0.287 °C. Target EXOSC8 (UniProt Q96B26) has a melting temperature shift of -0.256 °C. In the case of COA7 (UniProt Q96BR5), the melting temperature shift is reported as -0.758 °C. For UniProt Q969X1, the melting temperature shift was -2.32 °C. Target CCDC102A (UniProt Q96A19) has a melting temperature shift of -0.659 °C. FAM136A (UniProt Q96C01) showed a melting temperature shift of -3.9 °C. UniProt Q92560 gave a melting temperature shift of 2.9 °C. UniProt Q96C12 gave a melting temperature shift of -0.0833 °C. In the case of SLC7A6 (UniProt Q92536), the melting temperature shift is reported as 2.14 °C. Work on PALLD (UniProt Q8WX93) yielded a melting temperature shift of -2.56 °C. With MAML1 (UniProt Q92585) the melting temperature shift was 1.72 °C. For AP2M1 (UniProt Q96CW1), the melting temperature shift was -0.594 °C. For UPF1 (UniProt Q92900), the melting temperature shift was 0.745 °C. With UFD1L (UniProt Q92890) the melting temperature shift was -0.724 °C. GCN1 (UniProt Q92616) showed a melting temperature shift of -0.685 °C. UniProt Q92481 gave a melting temperature shift of 0.122 °C. Work on GLG1 (UniProt Q92896) yielded a melting temperature shift of -2.55 °C. ADCK4 (UniProt Q96D53) gave a melting temperature shift of -0.583 °C. Target TBC1D5 (UniProt Q92609) has a melting temperature shift of 0.409 °C. ABCC2 (UniProt Q92887) showed a melting temperature shift of -0.57 °C. UniProt Q969J3 showed a melting temperature shift of -0.349 °C. MRPS27 (UniProt Q92552) gave a melting temperature shift of 0.833 °C. For PSPC1 (UniProt Q8WXF1), the melting temperature shift was -1.03 °C. HSPH1 (UniProt Q92598) was tested, and the melting temperature shift was 0.525 °C. Work on UniProt Q92844 yielded a melting temperature shift of 5.79 °C. Target TIFA (UniProt Q96CG3) has a melting temperature shift of -1.04 °C.

Same assay, conditions: A375; MBE1 concentration: 1 uM
NUP205 (UniProt Q92621) gave a melting temperature shift of 0.891 °C. NCLN (UniProt Q969V3) was tested, and the melting temperature shift was 0.479 °C. Work on NSMAF (UniProt Q92636) yielded a melting temperature shift of 0.281 °C. Target TRUB1 (UniProt Q8WWH5) has a melting temperature shift of 0.574 °C. EXOSC8 (UniProt Q96B26) showed a melting temperature shift of -0.293 °C. FAM162A (UniProt Q96A26) showed a melting temperature shift of 0.697 °C. In the case of COA7 (UniProt Q96BR5), the melting temperature shift is reported as 0.268 °C. Work on CCDC102A (UniProt Q96A19) yielded a melting temperature shift of 0.0916 °C. FAM136A (UniProt Q96C01) was tested, and the melting temperature shift was -0.171 °C. APH1A (UniProt Q96BI3) was tested, and the melting temperature shift was -0.165 °C. UniProt Q92560 showed a melting temperature shift of 1.73 °C. Work on PALLD (UniProt Q8WX93) yielded a melting temperature shift of 1.07 °C. For AP2M1 (UniProt Q96CW1), the melting temperature shift was 0.148 °C. GTF3C6 (UniProt Q969F1) gave a melting temperature shift of 0.122 °C. For UPF1 (UniProt Q92900), the melting temperature shift was 0.177 °C. With UFD1L (UniProt Q92890) the melting temperature shift was 0.595 °C. GCN1 (UniProt Q92616) gave a melting temperature shift of -0.416 °C. UniProt Q96C34 showed a melting temperature shift of -0.65 °C. Target UniProt Q92481 has a melting temperature shift of 0.446 °C. NCSTN (UniProt Q92542) gave a melting temperature shift of -3.62 °C. SLC9A6 (UniProt Q92581) was tested, and the melting temperature shift was -4.82 °C. GLG1 (UniProt Q92896) showed a melting temperature shift of -2.8 °C. Work on BRI3BP (UniProt Q8WY22) yielded a melting temperature shift of -0.708 °C. With ADCK4 (UniProt Q96D53) the melting temperature shift was -1.08 °C. Target TBC1D5 (UniProt Q92609) has a melting temperature shift of -0.318 °C. Work on ABCC2 (UniProt Q92887) yielded a melting temperature shift of -0.287 °C. For UniProt Q969J3, the melting temperature shift was 0.812 °C. Work on MRPS27 (UniProt Q92552) yielded a melting temperature shift of 0.116 °C. Work on PSPC1 (UniProt Q8WXF1) yielded a melting temperature shift of -0.79 °C. For HSPH1 (UniProt Q92598), the melting temperature shift was -0.0733 °C. With TIFA (UniProt Q96CG3) the melting temperature shift was -0.867 °C.
